Results are given in words; binding and its absence hold for the method and conditions named. In cells and extracts the contact can be indirect. Some results given as binding are weak or reduced against the parent protein; the word gives no strength.

The chains behind the UniProt entries cited, without tags or fusion partners.
UniProt O95782: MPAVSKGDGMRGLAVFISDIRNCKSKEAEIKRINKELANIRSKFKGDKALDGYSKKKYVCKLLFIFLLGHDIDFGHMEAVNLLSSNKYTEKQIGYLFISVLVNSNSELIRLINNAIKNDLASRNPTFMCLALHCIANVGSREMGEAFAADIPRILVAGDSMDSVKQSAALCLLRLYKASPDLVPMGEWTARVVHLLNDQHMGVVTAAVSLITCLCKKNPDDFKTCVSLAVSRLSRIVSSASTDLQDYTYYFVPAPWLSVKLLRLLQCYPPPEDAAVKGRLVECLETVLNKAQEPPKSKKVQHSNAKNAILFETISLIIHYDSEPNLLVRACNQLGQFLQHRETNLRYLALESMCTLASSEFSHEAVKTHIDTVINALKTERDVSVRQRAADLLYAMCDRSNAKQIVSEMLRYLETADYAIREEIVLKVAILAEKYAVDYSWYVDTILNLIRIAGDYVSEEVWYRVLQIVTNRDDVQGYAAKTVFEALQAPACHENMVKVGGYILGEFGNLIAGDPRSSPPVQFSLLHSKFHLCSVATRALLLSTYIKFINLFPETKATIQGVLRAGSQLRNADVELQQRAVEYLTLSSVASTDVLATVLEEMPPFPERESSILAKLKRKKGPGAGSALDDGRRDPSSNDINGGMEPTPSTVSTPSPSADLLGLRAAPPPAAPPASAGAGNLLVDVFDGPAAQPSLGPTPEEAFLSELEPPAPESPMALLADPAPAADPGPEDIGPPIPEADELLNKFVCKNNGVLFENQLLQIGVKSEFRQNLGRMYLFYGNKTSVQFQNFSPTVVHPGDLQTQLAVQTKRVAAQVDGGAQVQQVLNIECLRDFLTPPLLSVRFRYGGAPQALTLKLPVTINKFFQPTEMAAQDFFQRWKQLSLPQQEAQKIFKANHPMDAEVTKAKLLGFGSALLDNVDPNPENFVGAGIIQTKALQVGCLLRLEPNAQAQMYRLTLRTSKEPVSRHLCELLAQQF
UniProt P84022: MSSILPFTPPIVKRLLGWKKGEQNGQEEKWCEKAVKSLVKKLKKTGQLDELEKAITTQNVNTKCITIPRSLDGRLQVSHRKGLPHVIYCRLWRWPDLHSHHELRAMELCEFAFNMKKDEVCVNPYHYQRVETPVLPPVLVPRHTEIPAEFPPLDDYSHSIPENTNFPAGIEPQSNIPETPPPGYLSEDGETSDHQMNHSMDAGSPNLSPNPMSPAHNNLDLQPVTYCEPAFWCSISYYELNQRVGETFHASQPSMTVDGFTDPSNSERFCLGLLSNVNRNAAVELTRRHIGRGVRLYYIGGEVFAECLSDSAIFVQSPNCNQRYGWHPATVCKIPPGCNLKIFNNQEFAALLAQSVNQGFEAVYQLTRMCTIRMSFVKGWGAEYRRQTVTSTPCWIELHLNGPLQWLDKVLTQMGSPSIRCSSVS

The target in experiment [1] is AP2A1 (human (endogenous in PANC-1 and BxPC-3)) (UniProt O95782). Nature of the experiment: co-IP; reciprocal: AP2A1 immunoprecipitates and SMAD3 immunoprecipitates from lysates of PANC-1 and BxPC-3 cells, western blot; 5 ng/ml TGF-β, 15 min; sh-ctrl or circEIF3I knockdown.
In experiment [2] the target is SMAD3 (human (endogenous in PANC-1 and BxPC-3)) (UniProt P84022). The experiment is described as above.

On to SMAD3 (from UniProt P84022 1-425), for which, in experiment [1], the binding entry was “binds”.
Regarding AP2A1 (from UniProt O95782 1-977), in experiment [2], the binding entry was “binds”.

The record behind these values is publication PMC10492306.
